The results in this text go back to publication doi:10.1101/2025.10.09.681391.

Amino acid sequences for entries named in this document (tags omitted). Residues count along the entry.
UniProt P46531, residues 19-1796: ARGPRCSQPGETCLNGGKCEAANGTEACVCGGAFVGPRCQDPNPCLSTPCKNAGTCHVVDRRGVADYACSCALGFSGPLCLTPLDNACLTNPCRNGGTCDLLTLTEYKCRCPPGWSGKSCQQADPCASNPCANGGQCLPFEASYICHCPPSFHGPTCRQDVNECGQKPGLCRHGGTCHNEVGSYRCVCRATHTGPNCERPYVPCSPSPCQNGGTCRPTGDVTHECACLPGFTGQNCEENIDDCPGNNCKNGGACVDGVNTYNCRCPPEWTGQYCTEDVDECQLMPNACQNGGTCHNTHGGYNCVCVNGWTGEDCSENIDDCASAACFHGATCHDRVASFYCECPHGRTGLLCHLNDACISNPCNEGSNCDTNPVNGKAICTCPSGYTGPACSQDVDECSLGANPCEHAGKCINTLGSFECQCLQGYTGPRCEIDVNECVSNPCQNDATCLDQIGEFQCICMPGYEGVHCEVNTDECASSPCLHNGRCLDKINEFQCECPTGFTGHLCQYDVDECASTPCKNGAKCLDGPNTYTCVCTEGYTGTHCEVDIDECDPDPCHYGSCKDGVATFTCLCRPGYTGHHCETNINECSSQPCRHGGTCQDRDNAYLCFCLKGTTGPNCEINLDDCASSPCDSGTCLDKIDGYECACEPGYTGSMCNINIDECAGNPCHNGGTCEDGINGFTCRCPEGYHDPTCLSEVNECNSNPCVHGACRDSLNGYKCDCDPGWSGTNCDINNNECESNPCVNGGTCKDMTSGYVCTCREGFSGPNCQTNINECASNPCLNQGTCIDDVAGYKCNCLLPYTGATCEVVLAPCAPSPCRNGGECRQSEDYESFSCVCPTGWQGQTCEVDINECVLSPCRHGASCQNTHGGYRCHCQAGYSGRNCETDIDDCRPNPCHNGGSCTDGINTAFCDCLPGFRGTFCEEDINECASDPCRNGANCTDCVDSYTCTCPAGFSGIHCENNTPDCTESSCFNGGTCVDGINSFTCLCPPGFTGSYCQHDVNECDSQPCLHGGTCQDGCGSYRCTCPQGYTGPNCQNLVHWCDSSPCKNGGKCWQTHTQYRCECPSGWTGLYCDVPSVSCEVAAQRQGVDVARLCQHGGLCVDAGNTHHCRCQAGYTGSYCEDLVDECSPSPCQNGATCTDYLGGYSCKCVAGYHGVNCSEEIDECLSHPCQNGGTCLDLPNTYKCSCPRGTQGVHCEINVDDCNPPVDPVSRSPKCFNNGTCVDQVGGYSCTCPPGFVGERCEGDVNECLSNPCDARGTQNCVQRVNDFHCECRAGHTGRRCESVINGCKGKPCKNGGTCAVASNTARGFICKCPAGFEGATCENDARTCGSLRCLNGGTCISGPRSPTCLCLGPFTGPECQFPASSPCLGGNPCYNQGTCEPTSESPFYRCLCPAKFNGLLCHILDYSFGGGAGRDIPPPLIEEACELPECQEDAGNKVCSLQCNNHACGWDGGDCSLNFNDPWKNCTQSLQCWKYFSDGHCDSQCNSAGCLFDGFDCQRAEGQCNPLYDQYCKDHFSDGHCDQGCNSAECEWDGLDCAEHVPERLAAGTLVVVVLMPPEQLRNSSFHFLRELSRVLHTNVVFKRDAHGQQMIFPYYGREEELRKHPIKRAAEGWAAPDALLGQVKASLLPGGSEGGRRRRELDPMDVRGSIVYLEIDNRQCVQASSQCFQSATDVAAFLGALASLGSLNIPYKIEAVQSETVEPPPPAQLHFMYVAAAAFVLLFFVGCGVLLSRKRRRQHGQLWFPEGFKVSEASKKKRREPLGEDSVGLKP
UniProt Q04721, residues 26-1677: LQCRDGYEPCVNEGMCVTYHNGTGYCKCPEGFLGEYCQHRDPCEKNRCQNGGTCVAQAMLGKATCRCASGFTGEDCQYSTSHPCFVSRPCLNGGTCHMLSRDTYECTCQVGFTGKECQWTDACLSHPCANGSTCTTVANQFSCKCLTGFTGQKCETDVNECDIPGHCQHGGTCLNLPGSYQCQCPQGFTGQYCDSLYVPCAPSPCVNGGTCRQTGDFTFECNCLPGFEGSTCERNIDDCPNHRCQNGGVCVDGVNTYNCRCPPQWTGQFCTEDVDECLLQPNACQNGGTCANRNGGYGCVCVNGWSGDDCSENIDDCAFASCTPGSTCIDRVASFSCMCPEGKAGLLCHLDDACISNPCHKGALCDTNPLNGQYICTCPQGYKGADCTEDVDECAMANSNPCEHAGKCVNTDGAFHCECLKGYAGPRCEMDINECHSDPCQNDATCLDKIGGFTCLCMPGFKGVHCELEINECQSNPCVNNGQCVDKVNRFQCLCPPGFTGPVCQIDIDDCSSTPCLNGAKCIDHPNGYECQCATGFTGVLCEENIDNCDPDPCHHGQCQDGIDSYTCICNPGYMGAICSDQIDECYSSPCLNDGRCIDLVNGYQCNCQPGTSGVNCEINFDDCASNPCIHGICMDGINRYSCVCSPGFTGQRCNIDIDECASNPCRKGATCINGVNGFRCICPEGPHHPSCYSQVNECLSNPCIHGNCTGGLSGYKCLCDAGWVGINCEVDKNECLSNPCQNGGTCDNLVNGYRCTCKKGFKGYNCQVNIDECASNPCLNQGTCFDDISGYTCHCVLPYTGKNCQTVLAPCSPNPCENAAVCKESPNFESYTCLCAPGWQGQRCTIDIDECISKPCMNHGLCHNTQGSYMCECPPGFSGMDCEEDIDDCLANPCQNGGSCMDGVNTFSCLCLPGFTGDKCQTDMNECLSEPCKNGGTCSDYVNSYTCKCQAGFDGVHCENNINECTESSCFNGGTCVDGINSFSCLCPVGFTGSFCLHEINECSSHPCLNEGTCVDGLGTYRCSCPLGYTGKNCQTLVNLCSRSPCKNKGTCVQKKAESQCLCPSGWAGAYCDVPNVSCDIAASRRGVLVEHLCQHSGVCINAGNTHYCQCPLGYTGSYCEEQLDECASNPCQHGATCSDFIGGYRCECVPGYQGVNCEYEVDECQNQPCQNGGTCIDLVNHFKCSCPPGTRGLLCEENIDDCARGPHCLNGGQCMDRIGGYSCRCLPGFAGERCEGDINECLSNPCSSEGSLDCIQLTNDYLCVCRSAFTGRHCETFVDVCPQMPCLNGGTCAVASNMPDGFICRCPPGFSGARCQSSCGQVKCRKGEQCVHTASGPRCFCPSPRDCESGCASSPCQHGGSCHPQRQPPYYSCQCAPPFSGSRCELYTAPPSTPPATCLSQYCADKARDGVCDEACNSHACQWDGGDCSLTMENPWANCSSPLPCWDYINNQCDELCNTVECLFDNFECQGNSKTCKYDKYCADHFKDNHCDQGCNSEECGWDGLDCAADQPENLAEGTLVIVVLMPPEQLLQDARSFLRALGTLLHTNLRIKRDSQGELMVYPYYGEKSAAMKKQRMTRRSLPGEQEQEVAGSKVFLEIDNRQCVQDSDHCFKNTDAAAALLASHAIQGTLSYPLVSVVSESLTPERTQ

Results are given in words; binding and its absence hold for the method and conditions named. Binding seen in cells or lysates may run through a third protein. Some binding calls cover weakened binding; strength is not graded here.

Assay [1] deals with FLAG-tagged NOTCH1 extracellular domain (human) (UniProt P46531). The assay can be described thus: co-IP.
For assay [2], the target named is FLAG-tagged NOTCH2 extracellular domain (human) (UniProt Q04721). The assay can be described thus: co-IP.

B1: full-length human CNTN6-3xHA (protein, UniProt Q9UQ52 20-999)
chain: DGLLSRPIFTQEPHDVIFPLDLSKSEVILNCAANGYPSPHYRWKQNGTDIDFTMSYHYRLDGGSLAINSPHTDQDIGMYQCLATNLLGTILSRKAKLQFAYIEDFETKTRSTVSVREGQGVVLLCGPPPHFGDLSYAWTFNDNPLYVQEDNRRFVSQETGNLYIAKVEPSDVGNYTCFITNKEAQRSVQGPPTPLVQRTDGVMGEYEPKIEVRFPETIQAAKDSSVKLECFALGNPVPDISWRRLDGSPLPGKVKYSKSQAILEIPNFQQEDEGFYECIASNLRGRNLAKGQLIFYAPPEWEQKIQNTHLSIYDNLLWECKASGKPNPWYTWLKNGERLNPEERIQIENGTLIITMLNVSDSGVYQCAAENKYQIIYANAELRVLASAPDFSKSPVKKKSFVQVGGDIVIGCKPNAFPRAAISWKRGTETLRQSKRIFLLEDGSLKIYNITRSDAGSYTCIATNQFGTAKNTGSLIVKERTVITVPPSKMDVTVGESIVLPCQVSHDPSIEVVFVWFFNGDVIDLKKGVAHFERIGGESVGDLMIRNIQLHHSGKYLCTVQTTLESLSAVADIIVRGPPGPPEDVQVEDISSTTSQLSWRAGPDNNSPIQIFTIQTRTPFSVGWQAVATVPEILNGKTYNATVVGLSPWVEYEFRVVAGNSIGIGEPSEPSELLRTKASVPVVAPVNIHGGGGSRSELVITWESIPEELQNGEGFGYIIMFRPVGSTTWSKEKVSSVESSRFVYRNESIIPLSPFEVKVGVYNNEGEGSLSTVTIVYSGEDEPQLAPRGTSLQSFSASEMEVSWNAIAWNRNTGRVLGYEVLYWTDDSKESMIGKIRVSGNVTTKNITGLKANTIYFASVRAYNTAGTGPSSPPVNVTTKKSPPSQPPANIAWKLTNSKLCLNWEHVKTMENESEVLGYKILYRQNRQSKTHILETNNTSAELLVPFEEDYLIEIRTVSDGGDGSSSEEIRIPKMSSLSS
B1: the binding result in assay [1] and in assay [2] was “binds” each time.
